In article PMC8517208:
Results are given in words; binding and its absence hold for the method and conditions named. Binding seen in cells or lysates may run through a third protein. A yes stands for co-enrichment or nearness to the bait. Other partners may have been found. Where a sequence is shown, tags or fusion partners need not be part of it.

T1: murine EpCAM in fusion with yellow fluorescent protein (YFP) at the C-terminus, in mF9 cells (murine) (UniProt Q99JW5)
T1 sequence: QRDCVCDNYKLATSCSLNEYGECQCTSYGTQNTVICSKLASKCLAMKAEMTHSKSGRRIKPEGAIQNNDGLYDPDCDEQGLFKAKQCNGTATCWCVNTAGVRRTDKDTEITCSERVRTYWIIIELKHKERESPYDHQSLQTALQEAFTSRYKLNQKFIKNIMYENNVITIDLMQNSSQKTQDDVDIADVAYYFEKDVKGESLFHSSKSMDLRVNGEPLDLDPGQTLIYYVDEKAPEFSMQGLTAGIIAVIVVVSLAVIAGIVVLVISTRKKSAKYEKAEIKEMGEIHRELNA

B1: Thioredoxin-related transmembrane protein 1 (protein, UniProt Q8VBT0 27-278)
chain: RRNNVRVLTDENWTSLLEGEWMIEFYAPWCPACQNLQPEWESFAEWGEDLEVKVAKVDVTEQTGLSGRFIITALPSIYHCKDGEFRRYVGPRTKKDFINFVSDKEWKNIEPISSWFGPSSVLMTMMSALFQLSVYIRTSHSYFVHDLGIPAWGSYLVFAFATVLSGLLLGLCMIFVADCLCPSKRRKPQQQYAKKTSPEFSQPLKKVEEEQEADEEDVSEEEAEDREGASKATSQSSIRQRCVGLPSATDTS
B2: Embryonic Ras (protein, UniProt Q7TN89 1-227)
chain: MALPTKSSILDLSSGTPCTRSPEESHEAWAQCKDAGRQLPEYKAVVVGASGVGKSALTIQMTHQCFVKDHDPTIQDSYWKEVARDNGGYILNVLDTSGQDIHRALRDQCLASGDGVLGVFALDDPSSLDQLQQIWSTWTPHHKQPLVLVGNKCDLVTTAGDAHAAAALLAHKLGAPLVKTSAKTRQGVEEAFALLVHEIQRAQEAVAESSKKTRHQKAVCSCGCSVA
B3: Solute carrier family 2, facilitated glucose transporter member 3 (protein, UniProt P32037 1-493)
chain: MGTTKVTPSLVFAVTVATIGSFQFGYNTGVINAPETILKDFLNYTLEERLEDLPSEGLLTALWSLCVAIFSVGGMIGSFSVGLFVNRFGRRNSMLLVNLLAIIAGCLMGFAKIAESVEMLILGRLLIGIFCGLCTGFVPMYIGEVSPTALRGAFGTLNQLGIVVGILVAQIFGLDFILGSEELWPGLLGLTIIPAILQSAALPFCPESPRFLLINKKEEDQATEILQRLWGTSDVVQEIQEMKDESVRMSQEKQVTVLELFRSPNYVQPLLISIVLQLSQQLSGINAVFYYSTGIFKDAGVQEPIYATIGAGVVNTIFTVVSLFLVERAGRRTLHMIGLGGMAVCSVFMTISLLLKDDYEAMSFVCIVAILIYVAFFEIGPGPIPWFIVAELFSQGPRPAAIAVAGCCNWTSNFLVGMLFPSAAAYLGAYVFIIFAAFLIFFLIFTFFKVPETKGRTFEDIARAFEGQAHSGKGPAGVELNSMQPVKETPGNA

Molecular target: T1, murine EpCAM in fusion with yellow fluorescent protein (YFP) at the C-terminus, in mF9 cells (murine)
Experiment: affinity purification with mass spectrometry; SILAC: whole cell lysates of mF9 cells stably expressing EpCAM-YFP (heavy, Lys-8/Arg-10) or YFP (light); 3 or 7 mg lysate with 30 μL GFP-Trap agarose beads, 3 hrs, 4°C; washed in 0.2% tween in PBS; LC-MS/MS; three biological repeats; hits: enriched >3-fold over YFP, p ≤ 0.05, at least 2 unique peptides

| Binder | binding |
| --- | --- |
| B1 | binds |
| B2 | binds |
| B3 | binds |
